These are yes or no findings as the source states them, for the method shown. Binding seen in cells or lysates may run through a third protein. Some results given as binding are weak or reduced against the parent protein; the word gives no strength. Sequences can lack the tags named with a protein.

The assay concerns the target T1, GFP-TBC1D1 (UniProt Q86TI0).
T1 sequence: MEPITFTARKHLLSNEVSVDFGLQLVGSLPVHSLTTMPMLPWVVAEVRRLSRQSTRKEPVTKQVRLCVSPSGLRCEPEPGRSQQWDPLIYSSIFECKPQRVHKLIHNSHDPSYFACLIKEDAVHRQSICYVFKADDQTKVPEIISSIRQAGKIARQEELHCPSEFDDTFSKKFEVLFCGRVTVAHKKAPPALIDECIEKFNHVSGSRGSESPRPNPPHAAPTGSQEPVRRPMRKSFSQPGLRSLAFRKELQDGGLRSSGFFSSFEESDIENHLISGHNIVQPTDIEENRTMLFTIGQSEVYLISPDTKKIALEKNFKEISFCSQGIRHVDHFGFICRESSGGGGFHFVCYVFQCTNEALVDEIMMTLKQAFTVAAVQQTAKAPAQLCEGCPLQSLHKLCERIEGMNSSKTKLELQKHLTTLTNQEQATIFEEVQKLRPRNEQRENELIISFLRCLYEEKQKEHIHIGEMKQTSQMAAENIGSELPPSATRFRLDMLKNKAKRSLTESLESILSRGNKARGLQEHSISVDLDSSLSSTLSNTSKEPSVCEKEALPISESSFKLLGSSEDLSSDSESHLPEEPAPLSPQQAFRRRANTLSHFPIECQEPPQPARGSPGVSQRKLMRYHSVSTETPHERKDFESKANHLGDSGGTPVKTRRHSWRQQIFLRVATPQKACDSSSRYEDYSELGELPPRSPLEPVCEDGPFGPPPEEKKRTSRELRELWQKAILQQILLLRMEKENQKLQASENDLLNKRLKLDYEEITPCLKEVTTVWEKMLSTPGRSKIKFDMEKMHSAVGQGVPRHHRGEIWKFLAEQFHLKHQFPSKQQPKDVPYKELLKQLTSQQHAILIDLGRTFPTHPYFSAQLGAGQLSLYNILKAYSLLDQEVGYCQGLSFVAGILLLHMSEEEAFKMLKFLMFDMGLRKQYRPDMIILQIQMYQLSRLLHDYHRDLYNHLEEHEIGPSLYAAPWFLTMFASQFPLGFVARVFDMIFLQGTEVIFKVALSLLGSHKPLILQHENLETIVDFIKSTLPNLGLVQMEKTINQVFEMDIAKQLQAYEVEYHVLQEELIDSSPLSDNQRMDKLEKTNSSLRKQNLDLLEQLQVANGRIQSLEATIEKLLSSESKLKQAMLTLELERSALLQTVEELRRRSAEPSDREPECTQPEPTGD
The assay is described as follows: co-IP; GFP-trap beads, lysate of transiently transfected HEK293T; IP buffer 50 mM Tris-HCl, 0.5% NP-40; 1 h at 4 °C; western blot; GFP-TBC1D1 alone or co-expressed with mCherry-TBC1D4.

B1: mCherry-TBC1D4 (protein, UniProt O60343 1-1298)
chain: MEPPSCIQDEPFPHPLEPEPGVSAQPGPGKPSDKRFRLWYVGGSCLDHRTTLPMLPWLMAEIRRRSQKPEAGGCGAPAAREVILVLSAPFLRCVPAPGAGASGGTSPSATQPNPAVFIFEHKAQHISRFIHNSHDLTYFAYLIKAQPDDPESQMACHVFRATDPSQVPDVISSIRQLSKAAMKEDAKPSKDNEDAFYNSQKFEVLYCGKVTVTHKKAPSSLIDDCMEKFSLHEQQRLKIQGEQRGPDPGEDLADLEVVVPGSPGDCLPEEADGTDTHLGLPAGASQPALTSSRVCFPERILEDSGFDEQQEFRSRCSSVTGVQRRVHEGSQKSQPRRRHASAPSHVQPSDSEKNRTMLFQVGRFEINLISPDTKSVVLEKNFKDISSCSQGIKHVDHFGFICRESPEPGLSQYICYVFQCASESLVDEVMLTLKQAFSTAAALQSAKTQIKLCEACPMHSLHKLCERIEGLYPPRAKLVIQRHLSSLTDNEQADIFERVQKMKPVSDQEENELVILHLRQLCEAKQKTHVHIGEGPSTISNSTIPENATSSGRFKLDILKNKAKRSLTSSLENIFSRGANRMRGRLGSVDSFERSNSLASEKDYSPGDSPPGTPPASPPSSAWQTFPEEDSDSPQFRRRAHTFSHPPSSTKRKLNLQDGRAQGVRSPLLRQSSSEQCSNLSSVRRMYKESNSSSSLPSLHTSFSAPSFTAPSFLKSFYQNSGRLSPQYENEIRQDTASESSDGEGRKRTSSTCSNESLSVGGTSVTPRRISWRQRIFLRVASPMNKSPSAMQQQDGLDRNELLPLSPLSPTMEEEPLVVFLSGEDDPEKIEERKKSKELRSLWRKAIHQQILLLRMEKENQKLEASRDELQSRKVKLDYEEVGACQKEVLITWDKKLLNCRAKIRCDMEDIHTLLKEGVPKSRRGEIWQFLALQYRLRHRLPNKQQPPDISYKELLKQLTAQQHAILVDLGRTFPTHPYFSVQLGPGQLSLFNLLKAYSLLDKEVGYCQGISFVAGVLLLHMSEEQAFEMLKFLMYDLGFRKQYRPDMMSLQIQMYQLSRLLHDYHRDLYNHLEENEISPSLYAAPWFLTLFASQFSLGFVARVFDIIFLQGTEVIFKVALSLLSSQETLIMECESFENIVEFLKNTLPDMNTSEMEKIITQVFEMDISKQLHAYEVEYHVLQDELQESSYSCEDSETLEKLERANSQLKRQNMDLLEKLQVAHTKIQALESNLENLLTRETKMKSLIRTLEQEKMAYQKTVEQLRKLLPADALVNCDLLLRDLNCNPNNKAKIGNKP
B1: the binding result is reported as “binds”.

The values are drawn from PMC12311110.
